Measurements from paper PMC5476288 (PLoS Pathogens, 2017).
These are yes or no findings as the source states them, for the method shown. In cells and extracts the contact can be indirect. Some binding calls cover weakened binding; strength is not graded here. Where a sequence is shown, tags or fusion partners need not be part of it.

Columns and labels:
Assay in all cases: co-IP
Flag-ERRα Q262E = biological target: T1, Flag-ERRα Q262E (UniProt P11474)
T1 sequence: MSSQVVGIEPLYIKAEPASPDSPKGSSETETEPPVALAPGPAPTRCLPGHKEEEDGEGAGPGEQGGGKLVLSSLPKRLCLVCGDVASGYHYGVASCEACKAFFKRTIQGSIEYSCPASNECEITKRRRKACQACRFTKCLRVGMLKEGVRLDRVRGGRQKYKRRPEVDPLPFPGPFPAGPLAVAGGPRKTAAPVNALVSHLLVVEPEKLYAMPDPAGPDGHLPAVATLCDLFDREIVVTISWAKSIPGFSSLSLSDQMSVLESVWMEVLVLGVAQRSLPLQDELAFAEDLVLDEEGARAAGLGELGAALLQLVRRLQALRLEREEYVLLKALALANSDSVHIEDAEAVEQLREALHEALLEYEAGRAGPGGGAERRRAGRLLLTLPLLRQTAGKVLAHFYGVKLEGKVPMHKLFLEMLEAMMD

Flag-ERRα D338A = biological target: T2, Flag-ERRα D338A (UniProt P11474)
T2 sequence: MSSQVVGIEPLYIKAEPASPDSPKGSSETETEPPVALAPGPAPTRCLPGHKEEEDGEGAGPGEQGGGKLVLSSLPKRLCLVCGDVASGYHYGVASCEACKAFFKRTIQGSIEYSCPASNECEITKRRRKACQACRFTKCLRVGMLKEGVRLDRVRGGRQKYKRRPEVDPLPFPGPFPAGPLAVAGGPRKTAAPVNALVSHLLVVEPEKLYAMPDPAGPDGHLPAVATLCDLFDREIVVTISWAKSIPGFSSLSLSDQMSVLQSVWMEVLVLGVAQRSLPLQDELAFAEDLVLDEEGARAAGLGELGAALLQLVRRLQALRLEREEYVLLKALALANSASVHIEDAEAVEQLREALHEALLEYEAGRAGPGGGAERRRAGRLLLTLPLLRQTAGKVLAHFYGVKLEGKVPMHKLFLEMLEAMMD

Flag-ERRα H8/9 mutant = biological target: T3, Flag-ERRα H8/9 mutant (UniProt P11474)
T3 sequence: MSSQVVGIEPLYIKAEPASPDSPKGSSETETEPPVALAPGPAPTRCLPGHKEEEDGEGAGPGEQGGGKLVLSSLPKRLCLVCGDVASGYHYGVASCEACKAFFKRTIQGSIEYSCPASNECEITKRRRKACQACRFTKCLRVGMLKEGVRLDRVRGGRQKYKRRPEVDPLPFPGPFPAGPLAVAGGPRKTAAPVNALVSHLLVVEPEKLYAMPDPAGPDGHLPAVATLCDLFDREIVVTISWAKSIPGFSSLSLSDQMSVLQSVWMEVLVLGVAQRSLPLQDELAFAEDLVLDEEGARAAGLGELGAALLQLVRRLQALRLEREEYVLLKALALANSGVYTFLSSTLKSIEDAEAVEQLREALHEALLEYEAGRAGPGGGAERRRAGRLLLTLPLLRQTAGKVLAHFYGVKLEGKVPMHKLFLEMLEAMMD

Flag-IRF3 (human) = biological target: T4, Flag-IRF3 (human) (UniProt Q14653)
T4 sequence: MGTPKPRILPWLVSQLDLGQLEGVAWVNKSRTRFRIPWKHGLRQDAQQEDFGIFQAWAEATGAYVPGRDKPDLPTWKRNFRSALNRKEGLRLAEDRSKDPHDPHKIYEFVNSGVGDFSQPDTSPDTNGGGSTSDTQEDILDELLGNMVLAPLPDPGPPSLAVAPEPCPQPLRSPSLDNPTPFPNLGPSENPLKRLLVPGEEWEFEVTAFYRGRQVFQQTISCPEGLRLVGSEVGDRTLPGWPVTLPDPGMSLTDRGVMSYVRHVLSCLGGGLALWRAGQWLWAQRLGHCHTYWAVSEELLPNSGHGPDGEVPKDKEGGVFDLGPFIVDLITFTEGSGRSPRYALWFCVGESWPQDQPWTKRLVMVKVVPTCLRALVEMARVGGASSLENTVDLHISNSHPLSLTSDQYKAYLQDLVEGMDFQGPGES

Flag-ERRα = biological target: T5, Flag-ERRα (UniProt P11474)
T5 sequence: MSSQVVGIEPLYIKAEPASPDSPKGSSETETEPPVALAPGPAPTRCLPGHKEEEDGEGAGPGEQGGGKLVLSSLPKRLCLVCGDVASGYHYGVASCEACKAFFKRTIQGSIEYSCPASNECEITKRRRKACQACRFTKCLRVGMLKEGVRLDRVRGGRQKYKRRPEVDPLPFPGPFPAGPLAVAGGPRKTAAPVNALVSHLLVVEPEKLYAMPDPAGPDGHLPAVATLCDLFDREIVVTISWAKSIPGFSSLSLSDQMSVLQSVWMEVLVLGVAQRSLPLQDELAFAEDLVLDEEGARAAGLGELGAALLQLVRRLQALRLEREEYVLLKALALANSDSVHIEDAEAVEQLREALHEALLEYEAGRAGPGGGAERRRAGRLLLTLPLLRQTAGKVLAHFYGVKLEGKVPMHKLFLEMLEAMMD

Measured: binding

B1: HA-TBK1 (enzyme, UniProt Q9UHD2 1-729)
chain: MQSTSNHLWLLSDILGQGATANVFRGRHKKTGDLFAIKVFNNISFLRPVDVQMREFEVLKKLNHKNIVKLFAIEEETTTRHKVLIMEFCPCGSLYTVLEEPSNAYGLPESEFLIVLRDVVGGMNHLRENGIVHRDIKPGNIMRVIGEDGQSVYKLTDFGAARELEDDEQFVSLYGTEEYLHPDMYERAVLRKDHQKKYGATVDLWSIGVTFYHAATGSLPFRPFEGPRRNKEVMYKIITGKPSGAISGVQKAENGPIDWSGDMPVSCSLSRGLQVLLTPVLANILEADQEKCWGFDQFFAETSDILHRMVIHVFSLQQMTAHKIYIHSYNTATIFHELVYKQTKIISSNQELIYEGRRLVLEPGRLAQHFPKTTEENPIFVVSREPLNTIGLIYEKISLPKVHPRYDLDGDASMAKAITGVVCYACRIASTLLLYQELMRKGIRWLIELIKDDYNETVHKKTEVVITLDFCIRNIEKTVKVYEKLMKINLEAAELGEISDIHTKLLRLSSSQGTIETSLQDIDSRLSPGGSLADAWAHQEGTHPKDRNVEKLQVLLNCMTEIYYQFKKDKAERRLAYNEEQIHKFDKQKLYYHATKAMTHFTDECVKKYEAFLNKSEEWIRKMLHLRKQLLSLTNQCFDIEEEVSKYQEYTNELQETLPQKMFTASSGIKHTMTPIYPSSNTLVEMTLGMKKLKEEMEGVVKELAENNHILERFGSLTMDGGLRNVDCL
binds: all assays above
